According to patent US8957026B2, “Beta-catenin targeting peptides and uses thereof” (President and Fellows of Harvard College, priority 2010, dated 2015):
At least one structure is not confirmed: it was looked up by name or label, or the drawing left a doubt. Positions of bridges follow the written chain, without caps; N, C: chain ends. Non-standard residues stand in square brackets, D forms with d. Residues, ends and D or L forms follow the SMILES beside them. *: point of attachment. FITC = O=C1OC2(c3ccc(O)cc3Oc3cc(O)ccc32)c2ccc(NC(=S)*)cc21; S5 = C=CCCC[C@](C)(N)C(=O)O; βAla = NCCC(=O)O

Target: T1, N-terminally GST-tagged human β-catenin (Homo sapiens, UniProt P35222)
T1 sequence (P35222 1-781): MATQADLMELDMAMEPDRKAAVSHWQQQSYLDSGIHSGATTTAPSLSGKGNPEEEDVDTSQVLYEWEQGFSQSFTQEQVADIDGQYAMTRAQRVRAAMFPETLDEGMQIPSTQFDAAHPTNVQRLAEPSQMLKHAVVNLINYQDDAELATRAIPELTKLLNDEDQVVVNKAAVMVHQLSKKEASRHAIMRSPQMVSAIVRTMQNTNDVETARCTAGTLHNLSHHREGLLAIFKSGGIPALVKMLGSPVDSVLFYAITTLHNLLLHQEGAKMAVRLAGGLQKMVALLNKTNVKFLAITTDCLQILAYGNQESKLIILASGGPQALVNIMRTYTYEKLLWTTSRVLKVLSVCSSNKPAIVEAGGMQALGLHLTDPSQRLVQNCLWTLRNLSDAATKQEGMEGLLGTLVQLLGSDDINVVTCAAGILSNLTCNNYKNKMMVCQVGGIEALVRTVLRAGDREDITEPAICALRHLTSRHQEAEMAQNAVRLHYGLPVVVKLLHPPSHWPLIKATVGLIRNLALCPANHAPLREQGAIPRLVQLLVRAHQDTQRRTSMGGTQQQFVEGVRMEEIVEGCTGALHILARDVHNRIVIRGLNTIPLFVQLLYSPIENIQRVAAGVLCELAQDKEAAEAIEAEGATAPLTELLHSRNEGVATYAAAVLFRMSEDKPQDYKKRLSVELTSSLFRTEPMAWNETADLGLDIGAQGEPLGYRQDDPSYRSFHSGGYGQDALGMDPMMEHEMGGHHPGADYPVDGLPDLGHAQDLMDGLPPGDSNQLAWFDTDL
Assay: Fluorescence polarization assay with FITC-labeled peptides and GST-tagged β-catenin
Type: binding
Conditions: FITC-labeled peptide
Source text: FIG. 4 depicts (a) superimposed crystal structures of TCF4 (PDB ID: 2GL7)[14] and Axin (PDB ID: 1QZ7)[15] bound to β-catenin; (b) sequences of modified peptides with NCBI accession and covered amino acids (* amino acids 29-37 were replaced by two βAla); (c) fluorescence polarization assays using FITC-labeled peptides and N-terminally GST-tagged human β-catenin (with corresponding Kds).
FIG. 7 depicts (a) fluorescently labeled peptide sequences resulting from phage display affinity optimization (entries 1, 4 and 17/18 in FIG. 6b); (b) fluorescence polarization assay with fluorescently labeled peptides and N-terminally GST-tagged human β-catenin (with corresponding Kds).
Peptide sequences derived from TCF4 and Axin were synthesized and fluorescently labeled (FIG. 4b) and the affinity of both binding domains to β-catenin was assessed. […] Therefore, the Axin derivative was considered to be the most promising candidate for the hydrocarbon stapling approach. It combines a relatively short and helical peptide sequence (15 amino acids) with moderate binding of β-catenin (Kd of ˜5 μM).

## CC[C@H](C)[C@H](NC(=O)[C@H](CO)NC(=O)[C@H](CCC(=O)O)NC(=O)[C@@H]1CCCN1C(=O)[C@H](CC(N)=O)NC(=O)[C@H](CCC(=O)O)NC(=O)CCNC(=S)Nc1ccc2c(c1)C(=O)OC21c2ccc(O)cc2Oc2cc(O)ccc21)C(=O)N[C@@H](CC(C)C)C(=O)N[C@@H](CC(=O)O)C(=O)N[C@@H](CCC(=O)O)C(=O)N[C@@H](Cc1c[nH]cn1)C(=O)N[C@H](C(=O)N[C@@H](CCC(N)=O)C(=O)N[C@@H](CCCNC(=N)N)C(=O)N[C@H](C(=O)N[C@@H](CCSC)C(N)=O)C(C)C)C(C)C [ax-WT, reference compound] ({FITC-βAla}-ENPESILDEHVQRVM-NH2)
  Kd: ~5000 nM

## CC[C@H](C)[C@@H]1NC(=O)[C@@](C)(NC(=O)[C@H](CCC(=O)O)NC(=O)[C@@H]2CCCN2C(=O)[C@H](CC(N)=O)NC(=O)[C@H](CCC(=O)O)NC(=O)CCNC(=S)Nc2ccc3c(c2)C(=O)OC32c3ccc(O)cc3Oc3cc(O)ccc32)CCCC=CCCC[C@@](C)(C(=O)N[C@@H](Cc2c[nH]cn2)C(=O)N[C@H](C(=O)N[C@@H](CCC(N)=O)C(=O)N[C@@H](CCCNC(=N)N)C(=O)N[C@H](C(=O)N[C@@H](CCSC)C(N)=O)C(C)C)C(C)C)NC(=O)[C@H](CC(=O)O)NC(=O)[C@H](CC(C)C)NC1=O [STAX-3] ({FITC-βAla}-ENPE[S5]ILD[S5]HVQRVM-NH2; staple 5-9)
  Kd: 60.3 ± 6.2 nM
